Test results as given in patent publication US20120315281A1, “TREATMENT OF RENAL INJURY” (THE PENN STATE RESEARCH FOUNDATION, priority 2011, published 2012).

What was measured:
[1] = test system: Ins2^Akita and their wild type littermate mice; assay: Systolic blood pressure (Coda) in Ins2^Akita and wild type littermate mice; assay type: in vivo, mouse; settings: BEC 2.3 mg/kg/day 9 weeks, 14-week of age, mean ± SEM
Description: Experiments were conducted in male Ins2^Akita and their wild type (WT) littermate mice (DBA background; Jackson Laboratories) starting at 5 weeks of age until 14 weeks of age and were approved by the Pennsylvania State University College of Medicine Institutional Animal Care and Use Committee (PSU IACUC). The Ins2^Akita mice were recommended by the Animal Models of Diabetes Complications Consortium as an optimal model of diabetic nephropathy, and the mice developed hyperglycemia at 3 weeks of age. Additional experiments were conducted in male 6-week-old mice (DBA background; Jackson Laboratories), arginase-2 (Arg2) wild type […] mice on C57B1/6 background weighing 20-22 g and were approved by the PSU IACUC. […]
BEC, a selective arginase antagonist (2.3 mg/kg/day, Cayman Chemical, Ann Arbor, Mich., USA), or vehicle (phosphate-buffered saline) was administered by continuous subcutaneous infusion for 9 weeks (in Ins2^Akita experiments) or for 6 wks (in STZ DBA mice experiments) via a mini-osmotic pump (Alzet; Durect Corporation, Palo Alto, Calif., USA) as described in CIRCULATION RESEARCH, 102(8):923-32, Apr. […] The condition of mice and body weight were monitored daily following the pump implantation.
Systolic blood pressure was measured using Coda blood pressure (Kent Scientific Corp, Torrington, Conn.). […]

[2] = test system: Ins2^Akita and their wild type littermate mice; assay: Characteristics of Ins2^Akita and wild type littermate mice (glucose, body weight, kidney weight, body composition) with or without arginase inhibitor; assay type: in vivo, mouse; settings: 14-week of age, mean ± SEM; for Body Weight / Fat / Fluid / Lean: BEC 2.3 mg/kg/day 9 weeks; for Glucose: BEC 2.3 mg/kg/day via osmotic minipump 9 weeks; for Fat / Fluid / Lean: body composition
Description: Experiments were conducted in male Ins2^Akita and their wild type (WT) littermate mice (DBA background; Jackson Laboratories) starting at 5 weeks of age until 14 weeks of age and were approved by the Pennsylvania State University College of Medicine Institutional Animal Care and Use Committee (PSU IACUC). The Ins2^Akita mice were recommended by the Animal Models of Diabetes Complications Consortium as an optimal model of diabetic nephropathy, and the mice developed hyperglycemia at 3 weeks of age. Additional experiments were conducted in male 6-week-old mice (DBA background; Jackson Laboratories), arginase-2 (Arg2) wild type […] mice on C57B1/6 background weighing 20-22 g and were approved by the PSU IACUC. After an overnight fast, animals were given multiple low doses of vehicle or STZ (Sigma, St. Louis, Mo.; 50 mg/kg body wt dissolved in lactated Ringers solution) via intraperitoneal injection.
BEC, a selective arginase antagonist (2.3 mg/kg/day, Cayman Chemical, Ann Arbor, Mich., USA), or vehicle (phosphate-buffered saline) was administered by continuous subcutaneous infusion for 9 weeks (in Ins2^Akita experiments) or for 6 wks (in STZ DBA mice experiments) via a mini-osmotic pump (Alzet; Durect Corporation, Palo Alto, Calif., USA) as described in CIRCULATION RESEARCH, 102(8):923-32, Apr. 25, 2008. The osmotic pump was incubated in phosphate buffer saline (PBS) for 60-h at 37° C. prior to implantation and was implanted dorsally between shoulders. The condition of mice and body weight were monitored daily following the pump implantation.
Urinary albumin excretion (UAE) was measured by ELISA using Albuwell M (Exocell, Philadelphia, Pa.) as described previously. Blood urea nitrogen (BUN) was measured using (VITROS DT60II chemistry slides; Ortho-Clinical Diagnostics, Rochester, N.Y.). Body composition was determined using LF90 Minispec Time Domain Nuclear Magnetic Resonance Spectrometer (Bruker Optics, Billerica Mass.).
To assess the possible clinical significance of arginases in diabetic mice, the arginase-specific inhibitor BEC (2.3 mg/kg/day) was infused continuously as previously described or vehicle into Ins2^Akita mice and their wild-type littermates (DBA-background) for 9 weeks beginning at 5 weeks of age. […] There were no significant changes in systolic blood pressure (SBP) between all groups although there was a trend toward increased SBP in the Ins2^Akita groups.

[3] = control (wild type littermate) mice

N[C@@H](CSCCB(O)O)C(=O)O [BEC, S-(2-Boronoethyl)-L-cysteine]
Systolic BP ([1]; Ins2^Akita mice): 134 ± 2 mmHg | Systolic BP [1, 3]: 118 ± 10 mmHg | Body Weight ([2]; Ins2^Akita mice): 27 ± 1^++ g | Glucose ([2]; Ins2^Akita mice): 441 ± 17^+++ mg/dl | Fat ([2]; Ins2^Akita mice): 6.7 ± 0.6^+++ % | Fluid ([2]; Ins2^Akita mice): 6.4 ± 0.1^+ % | Lean ([2]; Ins2^Akita mice): 67.6 ± 1.2% | Fat [2, 3]: 12.4 ± 0.9% | Fluid [2, 3]: 7.9 ± 0.1% | Lean [2, 3]: 66.3 ± 0.5% | Body Weight [2, 3]: 32 ± 1 g | Glucose [2, 3]: 142 ± 7 mg/dL
